Measured values from publication doi:10.1101/2024.08.08.607204, “Mechanism of ASF1 Inhibition by CDAN1” (bioRxiv, 2024).
These are yes or no findings as the source states them, for the method shown. In cells and extracts the contact can be indirect. Some results given as binding are weak or reduced against the parent protein; the word gives no strength. For some of these results: Where a sequence is shown, tags or fusion partners need not be part of it.

By UniProt entry, the sequences of proteins in these tests, tags left out. Where a name states a change or a piece, a line headed by the entry shows the natural chain unless it says otherwise.
UniProt Q9Y294: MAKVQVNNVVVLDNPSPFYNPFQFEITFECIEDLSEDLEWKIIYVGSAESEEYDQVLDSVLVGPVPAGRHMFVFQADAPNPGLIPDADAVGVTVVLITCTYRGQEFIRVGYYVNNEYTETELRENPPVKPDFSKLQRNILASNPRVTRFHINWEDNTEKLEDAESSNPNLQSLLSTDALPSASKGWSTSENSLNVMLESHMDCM
UniProt Q9NVP2: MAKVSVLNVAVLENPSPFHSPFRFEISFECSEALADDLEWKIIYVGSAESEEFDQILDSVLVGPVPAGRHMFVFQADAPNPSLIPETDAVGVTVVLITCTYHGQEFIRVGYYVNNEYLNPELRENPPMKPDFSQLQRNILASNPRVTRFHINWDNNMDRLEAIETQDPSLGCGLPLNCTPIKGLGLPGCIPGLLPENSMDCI

T1: Strep-CDAN1 B* (S194A/R195A/R196A) (human) (UniProt Q8IWY9)
T1 sequence: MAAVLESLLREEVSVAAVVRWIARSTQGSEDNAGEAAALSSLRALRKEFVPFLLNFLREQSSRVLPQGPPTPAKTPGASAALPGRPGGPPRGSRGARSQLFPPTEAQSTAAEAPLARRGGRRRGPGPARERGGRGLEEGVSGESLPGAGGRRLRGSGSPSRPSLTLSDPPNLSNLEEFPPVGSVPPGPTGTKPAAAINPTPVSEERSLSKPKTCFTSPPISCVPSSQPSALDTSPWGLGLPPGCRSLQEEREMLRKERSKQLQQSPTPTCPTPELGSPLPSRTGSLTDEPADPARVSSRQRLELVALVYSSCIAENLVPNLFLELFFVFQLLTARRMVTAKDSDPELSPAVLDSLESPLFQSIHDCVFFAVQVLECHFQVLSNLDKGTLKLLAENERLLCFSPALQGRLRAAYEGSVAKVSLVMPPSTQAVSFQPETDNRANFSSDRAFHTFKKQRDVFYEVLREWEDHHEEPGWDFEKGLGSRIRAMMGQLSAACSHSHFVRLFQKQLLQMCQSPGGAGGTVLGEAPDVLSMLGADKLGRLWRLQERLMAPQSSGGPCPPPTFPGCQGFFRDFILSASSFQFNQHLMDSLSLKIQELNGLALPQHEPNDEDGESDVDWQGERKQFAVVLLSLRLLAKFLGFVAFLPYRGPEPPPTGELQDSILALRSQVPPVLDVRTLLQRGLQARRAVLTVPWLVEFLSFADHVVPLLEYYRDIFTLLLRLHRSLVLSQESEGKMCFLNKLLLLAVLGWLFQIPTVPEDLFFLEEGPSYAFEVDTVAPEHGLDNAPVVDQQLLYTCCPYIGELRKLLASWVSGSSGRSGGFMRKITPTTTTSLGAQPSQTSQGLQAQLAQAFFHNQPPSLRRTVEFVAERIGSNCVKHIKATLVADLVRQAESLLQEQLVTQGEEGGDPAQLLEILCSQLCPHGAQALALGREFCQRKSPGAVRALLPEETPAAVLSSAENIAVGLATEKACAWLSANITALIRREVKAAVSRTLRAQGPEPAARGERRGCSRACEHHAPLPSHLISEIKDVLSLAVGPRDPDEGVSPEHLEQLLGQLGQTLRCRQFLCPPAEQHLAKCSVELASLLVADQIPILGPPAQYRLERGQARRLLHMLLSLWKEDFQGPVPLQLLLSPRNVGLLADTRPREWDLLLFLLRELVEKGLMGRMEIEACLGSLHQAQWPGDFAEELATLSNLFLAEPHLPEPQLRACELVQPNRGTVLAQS

T2: Strep-tagged CDAN1 (ST-CDAN1), wildtype (human, UniProt Q8IWY9 1-1227)
T2 construct: Codanin-1 (CDAN1) cDNA from Horizon Discovery/Dharmacon; a point mutation of the clone (S421F) was corrected; in pCDNA3.1; Dimer by SEC-MALS and cryo-EM; Same plasmid used in Expi293 (purifications) and in Flp-In 293 T-REx (pulldowns); kept as one molecule; also called WT CDAN1; Strep-CDAN1; source: Expi293, transiently transfected, in lysate and purified in complexes (anti-FLAG, Strep-Tactin); …
T2 sequence: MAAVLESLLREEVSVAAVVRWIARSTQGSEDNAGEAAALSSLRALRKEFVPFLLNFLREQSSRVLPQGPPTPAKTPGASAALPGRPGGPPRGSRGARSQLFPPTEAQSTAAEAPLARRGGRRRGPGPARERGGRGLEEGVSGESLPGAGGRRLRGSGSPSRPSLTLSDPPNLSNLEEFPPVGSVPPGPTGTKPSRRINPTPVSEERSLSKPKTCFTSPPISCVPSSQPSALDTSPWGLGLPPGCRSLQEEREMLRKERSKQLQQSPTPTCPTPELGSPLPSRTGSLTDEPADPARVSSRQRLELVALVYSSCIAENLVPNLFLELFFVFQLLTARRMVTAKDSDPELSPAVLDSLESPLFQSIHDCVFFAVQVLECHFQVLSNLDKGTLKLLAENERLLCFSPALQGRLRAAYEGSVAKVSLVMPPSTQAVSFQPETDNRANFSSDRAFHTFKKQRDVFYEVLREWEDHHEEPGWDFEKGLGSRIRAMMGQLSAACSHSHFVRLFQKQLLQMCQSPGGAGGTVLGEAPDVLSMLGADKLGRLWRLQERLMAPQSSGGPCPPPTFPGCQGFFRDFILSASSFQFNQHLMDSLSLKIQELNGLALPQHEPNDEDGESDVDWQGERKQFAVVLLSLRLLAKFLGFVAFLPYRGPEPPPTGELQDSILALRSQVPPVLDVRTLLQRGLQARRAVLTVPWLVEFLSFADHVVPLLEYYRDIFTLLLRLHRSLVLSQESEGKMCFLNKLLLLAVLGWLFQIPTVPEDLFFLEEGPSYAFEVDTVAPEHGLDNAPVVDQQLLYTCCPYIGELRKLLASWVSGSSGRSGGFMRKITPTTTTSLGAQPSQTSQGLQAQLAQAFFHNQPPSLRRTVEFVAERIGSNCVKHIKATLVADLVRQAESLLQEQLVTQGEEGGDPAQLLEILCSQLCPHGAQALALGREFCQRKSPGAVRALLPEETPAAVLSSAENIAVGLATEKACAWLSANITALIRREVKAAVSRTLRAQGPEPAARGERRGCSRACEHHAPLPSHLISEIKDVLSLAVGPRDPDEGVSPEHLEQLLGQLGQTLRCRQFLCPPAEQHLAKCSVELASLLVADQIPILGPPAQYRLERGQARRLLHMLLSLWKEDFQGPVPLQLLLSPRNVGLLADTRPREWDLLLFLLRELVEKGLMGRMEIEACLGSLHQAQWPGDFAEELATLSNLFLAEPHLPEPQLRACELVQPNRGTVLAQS

T3: endogenous CDAN1 with a C-terminal HaloTag-FLAG (HF) epitope (human (endogenous in Flp-In 293 T-REx)) (UniProt Q8IWY9)
T3 sequence: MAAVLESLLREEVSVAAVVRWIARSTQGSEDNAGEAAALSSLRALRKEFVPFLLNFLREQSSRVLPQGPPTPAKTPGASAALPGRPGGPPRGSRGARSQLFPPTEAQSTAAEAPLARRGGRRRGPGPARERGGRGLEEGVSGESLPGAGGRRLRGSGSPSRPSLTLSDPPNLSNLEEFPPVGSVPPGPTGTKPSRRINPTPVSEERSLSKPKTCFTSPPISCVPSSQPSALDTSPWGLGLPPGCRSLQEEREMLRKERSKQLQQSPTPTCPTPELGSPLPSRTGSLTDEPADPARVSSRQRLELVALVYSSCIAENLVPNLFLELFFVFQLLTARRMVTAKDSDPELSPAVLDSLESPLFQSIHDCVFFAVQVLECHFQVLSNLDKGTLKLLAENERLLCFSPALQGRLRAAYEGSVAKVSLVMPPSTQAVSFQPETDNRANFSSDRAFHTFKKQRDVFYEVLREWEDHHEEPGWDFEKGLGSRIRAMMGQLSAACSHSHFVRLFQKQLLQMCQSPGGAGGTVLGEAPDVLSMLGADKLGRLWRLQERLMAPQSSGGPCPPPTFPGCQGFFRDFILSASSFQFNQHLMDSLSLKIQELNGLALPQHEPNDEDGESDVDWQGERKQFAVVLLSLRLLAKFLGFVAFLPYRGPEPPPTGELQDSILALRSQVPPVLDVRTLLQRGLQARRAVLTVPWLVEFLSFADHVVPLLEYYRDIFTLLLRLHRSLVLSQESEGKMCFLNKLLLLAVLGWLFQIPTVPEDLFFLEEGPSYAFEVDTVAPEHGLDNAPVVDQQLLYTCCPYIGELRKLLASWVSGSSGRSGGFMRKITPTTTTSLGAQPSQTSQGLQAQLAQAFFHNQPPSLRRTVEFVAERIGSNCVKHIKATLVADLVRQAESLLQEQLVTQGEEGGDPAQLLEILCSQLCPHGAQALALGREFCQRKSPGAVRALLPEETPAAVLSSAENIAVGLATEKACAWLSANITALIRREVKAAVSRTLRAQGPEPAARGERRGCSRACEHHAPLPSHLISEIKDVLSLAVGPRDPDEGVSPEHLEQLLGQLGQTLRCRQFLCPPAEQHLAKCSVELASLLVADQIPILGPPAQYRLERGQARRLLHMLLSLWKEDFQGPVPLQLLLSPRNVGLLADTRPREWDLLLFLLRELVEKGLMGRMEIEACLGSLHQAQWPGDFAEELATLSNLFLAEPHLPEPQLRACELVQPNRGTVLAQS


Legend:
[1] = biological target: T1, Strep-CDAN1 B* (S194A/R195A/R196A) (human); test: pull-down; Strep-Tactin Sepharose pulldown of ST-CDAN1 variants from lysates of transfected Flp-In 293 T-REx cells (alone, or co-transfected with FLAG-tagged ASF1 variants), IP buffer with 1% Triton X-100, 1 hr at 4°C; immunoblotting
[2] = biological target: T2, Strep-tagged CDAN1 (ST-CDAN1), wildtype; test: as above
[3] = biological target: T3, endogenous CDAN1 with a C-terminal HaloTag-FLAG (HF) epitope (human (endogenous in Flp-In 293 T-REx)); test: co-IP; anti-FLAG M2 agarose immunoprecipitation of endogenously HaloTag-FLAG-tagged CDAN1 or CDIN1 from Flp-In 293 T-REx lysates in IP buffer (50 mM HEPES pH 7.5, 100 mM KOAc, 2.5 Mg(OAc)2, 1% Triton X-100); immunoblotting

| Molecule | binding [1] | binding [2] | binding [3] |
| --- | --- | --- | --- |
| FLAG-ASF1B>N (ASF1B with the N-terminal domain, residues 1-27, of ASF1A) (from UniProt Q9Y294 1-27; Q9NVP2 28-202) |  | binds |  |
| endogenous ASF1A (from UniProt Q9Y294 1-204) | binds | binds | binds |
| endogenous ASF1B (from UniProt Q9NVP2 1-202) | binds | binds | binds |
| FLAG-tagged CDIN1 (F-CDIN1) (natural protein, UniProt Q9Y2V0 1-281, looked up, CDIN1 (C15orf41) cDNA synthesized by IDT, in pCDNA3.1; source: Expi293, transiently transfected, in lysate and purified in complexes (anti-FLAG, Strep-Tactin); not shown: 3xFLAG, N-terminal, kept) MILTKAQYDEIAQCLVSVPPTRQSLRKLKQRFPSQSQATLLSIFSQEYQKHIKRTHAKHHTSEAIESYYQRYLNGVVKNGAAPVLLDLANEVDYAPSLMARLILERFLQEHEETPPSKSIINSMLRDPSQIPDGVLANQVYQCIVNDCCYGPLVDCIKHAIGHEHEVLLRDLLLEKNLSFLDEDQLRAKGYDKTPDFILQVPVAVEGHIIHWIESKASFGDECSHHAYLHDQFWSYWNRFGPGLVIYWYGFIQELDCNRERGILLKACFPTNIVTLCHSIA | binds | binds | binds |

Continued, values first:

| binding [1] | binding [2] | binding [3] | Molecule |
| --- | --- | --- | --- |
| binds | binds |  | FLAG-ASF1A>N (ASF1A with the N-terminal domain, residues 1-27, of ASF1B) (from UniProt Q9NVP2 1-27; Q9Y294 28-204) |
| binds |  |  | FLAG-tagged ASF1A (F-ASF1A) (from UniProt Q9Y294 1-204) |
